{"source": "patent US20260286396A1", "about": "“AXL KNOCK OUT CAR T CELLS AND METHODS FOR USE THEREOF” (priority 2023, published 2026)", "tested_on": "CART19 cells", "assay": "RNA sequencing of CART19 cells with Ingenuity pathway analysis (pathways, upstream regulators)", "format": "cell-based, human", "description": "CART19 cells were isolated using CD4 and CD8 microbeads to […] the JeKo-1 target cells; this isolation step was performed twice to eliminate the possible contamination of JeKo-1 cells. RNA was isolated from the CART19 cells using QIAGEN RNEASY® Plus Mini Kit. RNA was further treated with DNase I (QIAGEN) and purified using RNA Clean & Concentrator (Zymo Research). […] The fastq files were viewed in FastQC to check for quality (Cox et al., Mol Ther., 29 (4): 1529-1540, 2020). After verifying the lack of adapter sequences with FastQC, Cutadapt (Martin, EMBnet, 17:10-12, 2011) was used to filter for reads greater than 32 base pairs. Output files were re-checked for quality using FastQC. The latest human reference genome (GRCh38.p13) was downloaded from NCBI. Genome index files were generated using STAR (Cox et al. 2020, supra, and Dobin et al., Bioinformatics, 29:15-21, 2012). Paired end reads from fastq files were mapped to the genome for each condition. HTSeq was used to generate expression counts for each gene (Cox et al. 2020, supra; and Putri et al., Bioinformatics, 38:2943-2945, 2022). […] The disruption efficiency of the CRISPR/Cas9 GM-CSF knockout was determined using targeted sequencing through PCR and TIDE analysis (software available at tide.nki.nl) as described elsewhere (Sakemura et al. 2021, supra).\nRNA sequencing of CART19 cells was then performed. […] Data were analyzed with the use of QIAGEN Ingenuity Pathway Analysis (IPA) (digitalinsights.qiagen.com/IPA; Krämer et al., Bioinformatics 30 (4): 523-530, 2014).", "key": {"[1]": {"details": "30 nM TP-0903, JeKo-1 stimulation 24 hours"}, "[2]": {"details": "30 nM TP-0903, irradiated JeKo-1, 5 days"}}, "data": [{"smiles": "CN1CCN(Cc2ccc(Nc3ncc(Cl)c(Nc4ccccc4S(=O)(=O)N(C)C)n3)cc2)CC1", "note": "[TP-0903, Dubermatinib]", "values": [{"measurement": "significantly downregulated genes", "setting": "[1]", "value": 414}, {"measurement": "significantly upregulated genes", "setting": "[1]", "value": 322}, {"measurement": "downregulated genes (heatmap, FIG. 12C)", "setting": "[2]", "value": 34}, {"measurement": "upregulated genes (heatmap, FIG. 12C)", "setting": "[2]", "value": 85}]}]}
